Assay results taken from patent US20250092156A1.
Results are given in words; binding and its absence hold for the method and conditions named. Some entries that bind do so weakly or less than the wild type.

Amino acid sequences for entries named in this document (tags omitted). A change or cut given only in a name is not applied to a line headed by its entry. Chains listed by the source or under a name are the forms on record and can include a tag or linker.
HA-tagged RPTPα P210L/P211L wedge mutant (P18052, form named): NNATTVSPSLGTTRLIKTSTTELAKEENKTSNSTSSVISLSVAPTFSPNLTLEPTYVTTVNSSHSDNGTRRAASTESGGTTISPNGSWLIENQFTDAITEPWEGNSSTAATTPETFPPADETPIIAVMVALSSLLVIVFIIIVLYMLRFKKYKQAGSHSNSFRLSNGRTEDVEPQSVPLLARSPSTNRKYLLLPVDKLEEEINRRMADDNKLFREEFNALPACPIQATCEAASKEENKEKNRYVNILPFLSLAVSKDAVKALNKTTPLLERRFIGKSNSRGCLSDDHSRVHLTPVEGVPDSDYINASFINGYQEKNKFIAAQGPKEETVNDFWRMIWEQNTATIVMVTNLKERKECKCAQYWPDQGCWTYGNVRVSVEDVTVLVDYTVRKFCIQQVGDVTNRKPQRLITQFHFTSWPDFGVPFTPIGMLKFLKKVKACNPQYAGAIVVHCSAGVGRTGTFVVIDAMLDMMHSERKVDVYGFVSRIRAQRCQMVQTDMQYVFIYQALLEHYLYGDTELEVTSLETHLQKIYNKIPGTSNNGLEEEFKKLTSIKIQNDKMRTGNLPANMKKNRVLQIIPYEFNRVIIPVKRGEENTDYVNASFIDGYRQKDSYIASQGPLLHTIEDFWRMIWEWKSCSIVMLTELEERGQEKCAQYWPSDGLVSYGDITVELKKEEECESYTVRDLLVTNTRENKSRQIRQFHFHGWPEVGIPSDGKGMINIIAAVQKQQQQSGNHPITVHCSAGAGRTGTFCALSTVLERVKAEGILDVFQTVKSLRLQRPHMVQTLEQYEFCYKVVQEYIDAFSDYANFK

Key:
[1] = biological target: FLAG-tagged RPTPα P210L/P211L wedge mutant (mouse) (UniProt P18052); assay: spectral acceptor photobleaching FRET (apFRET), lower than WT-WT
[2] = biological target: FLAG-tagged RPTPα P210L/P211L wedge mutant (mouse) (UniProt P18052); assay: FLIM-FRET, lower than WT-WT
[3] = biological target: FLAG-tagged RPTPα P210L/P211L wedge mutant (mouse) (UniProt P18052); assay: SECFRET / SEpFRET, HA-FLAG FRET, fixed FLS, against WT-WT

Measured: binding

HA-tagged RPTPα P210L/P211L wedge mutant (from UniProt P18052 20-829) (receptor)
binds: [1] | [2] | [3]
